For the test, the target named is estrogen receptor α (ERα) (human (endogenous in MCF7)) (UniProt P03372). The experiment in a line: sequential ChIP (re-ChIP); MCF7 cells untreated or treated with E2 (10 nM) and/or ICI 182,780 (20 nM); nuclei cross-linked with 1% formaldehyde, chromatin sonicated to ~1,000 bp; first immunoprecipitation with anti-ERα, elution in re-chip buffer at 37°C for 30 min, second immunoprecipitation with anti-NCoR, anti-SMRT or anti-LCoR; read-out PCR of the distal and proximal EREs of the MLK3 promoter.

Sequences of proteins named here, by UniProt entry; tags and fusion partners are left off.
UniProt P03372: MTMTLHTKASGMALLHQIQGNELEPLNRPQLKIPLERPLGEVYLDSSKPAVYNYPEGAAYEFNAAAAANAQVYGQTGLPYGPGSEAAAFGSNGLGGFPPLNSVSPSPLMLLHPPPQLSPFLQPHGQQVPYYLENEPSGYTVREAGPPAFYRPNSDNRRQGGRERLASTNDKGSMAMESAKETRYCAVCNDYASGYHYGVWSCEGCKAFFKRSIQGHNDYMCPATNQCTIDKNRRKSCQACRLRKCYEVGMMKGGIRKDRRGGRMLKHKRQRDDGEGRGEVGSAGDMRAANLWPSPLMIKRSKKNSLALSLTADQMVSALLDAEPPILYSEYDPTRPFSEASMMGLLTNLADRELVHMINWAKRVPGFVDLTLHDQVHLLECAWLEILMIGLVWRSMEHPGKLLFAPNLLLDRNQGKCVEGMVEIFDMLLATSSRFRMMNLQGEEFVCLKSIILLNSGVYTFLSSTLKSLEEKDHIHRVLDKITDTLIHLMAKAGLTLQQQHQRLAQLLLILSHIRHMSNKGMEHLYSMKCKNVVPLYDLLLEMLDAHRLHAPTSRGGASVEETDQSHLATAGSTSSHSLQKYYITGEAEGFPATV
UniProt O75376: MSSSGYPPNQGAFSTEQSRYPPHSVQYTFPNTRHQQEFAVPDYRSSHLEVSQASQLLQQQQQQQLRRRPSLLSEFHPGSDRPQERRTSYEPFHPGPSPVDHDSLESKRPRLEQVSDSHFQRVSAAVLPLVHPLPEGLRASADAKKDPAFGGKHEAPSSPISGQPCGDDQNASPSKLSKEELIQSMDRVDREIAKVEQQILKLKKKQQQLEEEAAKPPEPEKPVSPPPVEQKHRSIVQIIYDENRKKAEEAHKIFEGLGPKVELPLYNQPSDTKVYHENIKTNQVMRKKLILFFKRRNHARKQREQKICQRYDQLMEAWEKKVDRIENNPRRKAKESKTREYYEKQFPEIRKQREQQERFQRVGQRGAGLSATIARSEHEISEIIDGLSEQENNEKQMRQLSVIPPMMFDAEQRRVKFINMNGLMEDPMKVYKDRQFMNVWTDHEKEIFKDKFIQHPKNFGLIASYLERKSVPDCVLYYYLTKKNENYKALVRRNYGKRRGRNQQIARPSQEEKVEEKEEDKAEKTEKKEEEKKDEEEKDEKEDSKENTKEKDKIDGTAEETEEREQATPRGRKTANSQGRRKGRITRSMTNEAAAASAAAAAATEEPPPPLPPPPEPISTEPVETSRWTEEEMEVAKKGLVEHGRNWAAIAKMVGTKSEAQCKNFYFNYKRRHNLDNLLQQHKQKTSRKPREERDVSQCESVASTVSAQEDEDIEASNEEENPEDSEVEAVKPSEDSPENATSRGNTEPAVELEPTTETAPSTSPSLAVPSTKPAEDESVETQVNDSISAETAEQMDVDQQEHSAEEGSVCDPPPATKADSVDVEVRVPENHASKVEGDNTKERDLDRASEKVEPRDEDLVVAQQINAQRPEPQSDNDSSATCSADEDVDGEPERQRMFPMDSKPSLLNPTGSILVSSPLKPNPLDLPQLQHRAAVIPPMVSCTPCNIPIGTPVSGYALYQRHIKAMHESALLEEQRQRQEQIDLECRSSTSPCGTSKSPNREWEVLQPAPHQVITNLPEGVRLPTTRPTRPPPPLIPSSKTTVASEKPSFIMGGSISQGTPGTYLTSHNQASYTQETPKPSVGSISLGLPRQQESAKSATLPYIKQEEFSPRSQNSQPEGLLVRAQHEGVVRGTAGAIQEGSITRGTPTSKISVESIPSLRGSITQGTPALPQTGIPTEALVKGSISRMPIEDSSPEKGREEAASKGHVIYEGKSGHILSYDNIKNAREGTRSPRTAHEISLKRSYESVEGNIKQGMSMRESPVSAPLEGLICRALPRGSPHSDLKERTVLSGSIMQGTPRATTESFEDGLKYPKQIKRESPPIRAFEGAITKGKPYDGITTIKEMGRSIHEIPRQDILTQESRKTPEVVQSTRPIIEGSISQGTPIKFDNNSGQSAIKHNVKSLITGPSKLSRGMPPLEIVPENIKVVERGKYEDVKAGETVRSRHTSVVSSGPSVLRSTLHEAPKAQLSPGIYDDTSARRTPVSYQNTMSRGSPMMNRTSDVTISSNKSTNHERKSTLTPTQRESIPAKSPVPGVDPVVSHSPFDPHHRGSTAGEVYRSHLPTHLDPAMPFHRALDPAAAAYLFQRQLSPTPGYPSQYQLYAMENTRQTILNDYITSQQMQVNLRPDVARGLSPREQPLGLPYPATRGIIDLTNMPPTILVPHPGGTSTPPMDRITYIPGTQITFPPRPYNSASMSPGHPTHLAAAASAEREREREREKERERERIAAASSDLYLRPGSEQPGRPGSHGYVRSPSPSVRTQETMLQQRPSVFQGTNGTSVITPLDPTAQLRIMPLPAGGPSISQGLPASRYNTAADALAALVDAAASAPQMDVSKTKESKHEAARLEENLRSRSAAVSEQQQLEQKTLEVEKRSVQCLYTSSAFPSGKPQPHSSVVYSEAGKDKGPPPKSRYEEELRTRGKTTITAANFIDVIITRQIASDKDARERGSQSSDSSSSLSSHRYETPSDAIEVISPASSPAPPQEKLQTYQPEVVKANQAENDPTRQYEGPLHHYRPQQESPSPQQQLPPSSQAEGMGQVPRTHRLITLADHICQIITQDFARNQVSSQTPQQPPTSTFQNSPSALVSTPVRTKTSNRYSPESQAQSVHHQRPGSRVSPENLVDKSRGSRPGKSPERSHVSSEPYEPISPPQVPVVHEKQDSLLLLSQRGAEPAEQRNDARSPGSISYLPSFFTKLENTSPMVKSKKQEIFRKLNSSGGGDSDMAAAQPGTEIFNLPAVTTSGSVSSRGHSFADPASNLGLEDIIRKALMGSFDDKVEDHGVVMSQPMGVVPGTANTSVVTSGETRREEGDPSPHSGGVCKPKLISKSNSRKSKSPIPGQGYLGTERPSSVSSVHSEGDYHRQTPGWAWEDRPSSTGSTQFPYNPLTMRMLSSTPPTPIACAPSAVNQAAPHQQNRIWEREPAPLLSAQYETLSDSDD

No constants are given. Whether binding was seen depends on the method and setting. Some entries that bind do so weakly or less than the wild type.

In the case of “Nuclear Receptor Corepressor (NcoR) (from UniProt O75376 1-2440)”, the binding entry is “binds”.

B1: Ligand dependent Corepressor (LCoR) (protein, UniProt Q96JN0 1-433)
chain: MQRMIQQFAAEYTSKNSSTQDPSQPNSTKNQSLPKASPVTTSPTAATTQNPVLSKLLMADQDSPLDLTVRKSQSEPSEQDGVLDLSTKKSPCAGSTSLSHSPGCSSTQGNGRPGRPSQYRPDGLRSGDGVPPRSLQDGTREGFGHSTSLKVPLARSLQISEELLSRNQLSTAASLGPSGLQNHGQHLILSREASWAKPHYEFNLSRMKFRGNGALSNISDLPFLAENSAFPKMALQAKQDGKKDVSHSSPVDLKIPQVRGMDLSWESRTGDQYSYSSLVMGSQTESALSKKLRAILPKQSRKSMLDAGPDSWGSDAEQSTSGQPYPTSDQEGDPGSKQPRKKRGRYRQYNSEILEEAISVVMSGKMSVSKAQSIYGIPHSTLEYKVKERLGTLKNPPKKKMKLMRSEGPDVSVKIELDPQGEAAQSANESKNE
Take B1: the binding entry is reported as “binds”.

(Values after paper PMC5464859.)
